{"source": "the supplement of paper PMC8728848", "experiment_in_all_cases": "glycan array binding signal (z-score within array); higher = stronger binding", "conditions_in_all_cases": "glycan notation: IUPAC condensed, linker removed", "key": {"[1]": {"target": "Neu5Ac(a2-3)Gal(b1-4)GlcNAc(b1-2)[Neu5Ac(a2-3)Gal(b1-4)GlcNAc(b1-4)]Man(a1-3)[GlcNAc(b1-4)][Neu5Ac(a2-3)Gal(b1-4)GlcNAc(b1-2)[Neu5Ac(a2-3)Gal(b1-4)GlcNAc(b1-6)]Man(a1-6)]Man(b1-4)GlcNAc(b1-4)GlcNAc", "outline": "(§1)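 The Consortium for Functional Glycomics database supplied 3228 glycan arrays, of which those lacking an available protein sequence were dropped. The binding signal, a within-array Z-score, was averaged across arrays of the same protein sequence and across linkers. Negative scores can be read as non-binding.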"}, "[2]": {"target": "Neu5Ac(a2-3)Gal(b1-4)GlcNAc(b1-2)[Neu5Ac(a2-3)Gal(b1-4)GlcNAc(b1-4)]Man(a1-3)[GlcNAc(b1-4)][Neu5Ac(a2-3)Gal(b1-4)GlcNAc(b1-4)Man(a1-6)]Man(b1-4)GlcNAc(b1-4)GlcNAc", "outline": "as §1"}, "[3]": {"target": "Neu5Ac(a2-3)Gal(b1-4)GlcNAc(b1-2)[Neu5Ac(a2-3)Gal(b1-4)GlcNAc(b1-6)]Man(a1-6)[Neu5Ac(a2-3)Gal(b1-4)GlcNAc(b1-2)Man(a1-3)][GlcNAc(b1-4)]Man(b1-4)GlcNAc(b1-4)GlcNAc", "outline": "as §1"}, "[4]": {"target": "Neu5Ac(a2-3)Gal(b1-4)GlcNAc(b1-3)Gal", "outline": "as §1"}, "[5]": {"target": "Neu5Ac(a2-3)Gal(b1-4)GlcNAc(b1-3)Gal(b1-3)GlcNAc", "outline": "as §1"}, "[6]": {"target": "Neu5Ac(a2-3)Gal(b1-4)GlcNAc(b1-3)Gal(b1-4)GlcNAc", "outline": "as §1"}, "[7]": {"target": "Neu5Ac(a2-3)Gal(b1-4)GlcNAc(b1-3)Gal(b1-4)GlcNAc(b1-2)Man(a1-3)[Neu5Ac(a2-3)Gal(b1-4)GlcNAc(b1-3)Gal(b1-4)GlcNAc(b1-2)Man(a1-6)]Man(b1-4)GlcNAc(b1-4)GlcNAc", "outline": "as §1"}, "[8]": {"target": "Neu5Ac(a2-3)Gal(b1-4)GlcNAc(b1-3)Gal(b1-4)GlcNAc(b1-3)Gal(b1-4)GlcNAc", "outline": "as §1"}, "[9]": {"target": "Neu5Ac(a2-3)Gal(b1-4)GlcNAc(b1-3)Gal(b1-4)GlcNAc(b1-3)Gal(b1-4)GlcNAc(b1-2)Man(a1-3)[Neu5Ac(a2-3)Gal(b1-4)GlcNAc(b1-3)Gal(b1-4)GlcNAc(b1-3)Gal(b1-4)GlcNAc(b1-2)Man(a1-6)]GalNAc", "outline": "as §1"}, "[10]": {"target": "Neu5Ac(a2-3)Gal(b1-4)GlcNAc(b1-3)Gal(b1-4)GlcNAc(b1-3)GalNAc", "outline": "as §1"}, "[11]": {"target": "Neu5Ac(a2-3)Gal(b1-4)GlcNAc(b1-3)Gal(b1-4)GlcNAc(b1-3)[Neu5Ac(a2-3)Gal(b1-4)GlcNAc(b1-3)Gal(b1-4)GlcNAc(b1-6)]GalNAc", "outline": "as §1"}, "[12]": {"target": "Neu5Ac(a2-3)Gal(b1-4)GlcNAc(b1-3)Gal(b1-4)GlcNAc(b1-6)[Gal(b1-3)]GalNAc", "outline": "as §1"}, "[13]": {"target": "Neu5Ac(a2-3)Gal(b1-4)GlcNAc(b1-3)Gal(b1-4)[Fuc(a1-3)]GlcNAc", "outline": "as §1"}, "[14]": {"target": "Neu5Ac(a2-3)Gal(b1-4)GlcNAc(b1-3)GalNAc", "outline": "as §1"}, "[15]": {"target": "Neu5Ac(a2-3)Gal(b1-4)GlcNAc(b1-3)[Neu5Ac(a2-3)Gal(b1-4)GlcNAc(b1-6)]GalNAc", "outline": "as §1"}, "[16]": {"target": "Neu5Ac(a2-3)Gal(b1-4)GlcNAc(b1-6)GalNAc", "outline": "as §1"}, "[17]": {"target": "Neu5Ac(a2-3)Gal(b1-4)GlcNAc(b1-6)[Gal(b1-3)]GalNAc", "outline": "as §1"}, "[18]": {"target": "Neu5Ac(a2-3)Gal(b1-4)GlcNAc(b1-6)[Neu5Ac(a2-3)Gal(b1-3)]GalNAc", "outline": "as §1"}, "[19]": {"target": "Neu5Ac(a2-3)Gal(b1-4)GlcNAc6S", "outline": "as §1"}, "[20]": {"target": "Neu5Ac(a2-3)Gal(b1-4)[Fuc(a1-3)]GlcNAc", "outline": "as §1"}, "[21]": {"target": "Neu5Ac(a2-3)Gal(b1-4)[Fuc(a1-3)]GlcNAc(b1-2)Man", "outline": "as §1"}, "[22]": {"target": "Neu5Ac(a2-3)Gal(b1-4)[Fuc(a1-3)]GlcNAc(b1-3)Gal", "outline": "as §1"}, "[23]": {"target": "Neu5Ac(a2-3)Gal(b1-4)[Fuc(a1-3)]GlcNAc(b1-3)Gal(b1-4)GlcNAc", "outline": "as §1"}, "[24]": {"target": "Neu5Ac(a2-3)Gal(b1-4)[Fuc(a1-3)]GlcNAc(b1-3)Gal(b1-4)[Fuc(a1-3)]GlcNAc(b1-3)Gal(b1-4)[Fuc(a1-3)]GlcNAc", "outline": "as §1"}, "[25]": {"target": "Neu5Ac(a2-3)Gal(b1-4)[Fuc(a1-3)]GlcNAc(b1-3)GalNAc", "outline": "as §1"}, "[26]": {"target": "Neu5Ac(a2-3)Gal(b1-4)[Fuc(a1-3)]GlcNAc(b1-6)[Gal(b1-3)]GalNAc", "outline": "as §1"}, "[27]": {"target": "Neu5Ac(a2-3)Gal(b1-4)[Fuc(a1-3)]GlcNAc(b1-6)[Neu5Ac(a2-3)Gal(b1-3)]GalNAc", "outline": "as §1"}, "[28]": {"target": "Neu5Ac(a2-3)Gal(b1-4)[Fuc(a1-3)]GlcNAc6S", "outline": "as §1"}, "[29]": {"target": "Neu5Ac(a2-3)Gal6S(b1-4)GlcNAc", "outline": "as §1"}, "[30]": {"target": "Neu5Ac(a2-3)Gal6S(b1-4)[Fuc(a1-3)]GlcNAc", "outline": "as §1"}, "Neu5Ac(a2-3)GalNAc": {"target": "Neu5Ac(a2-3)GalNAc", "outline": "as §1"}, "[31]": {"target": "Neu5Ac(a2-3)GalNAc(b1-4)GlcNAc", "outline": "as §1"}, "[32]": {"target": "Neu5Ac(a2-3)[GalNAc(b1-4)]Gal(b1-4)Glc", "outline": "as §1"}, "[33]": {"target": "Neu5Ac(a2-3)[GalNAc(b1-4)]Gal(b1-4)GlcNAc", "outline": "as §1"}, "[34]": {"target": "Neu5Ac(a2-3)[GalNAc(b1-4)]Gal(b1-4)GlcNAc(b1-3)GalNAc", "outline": "as §1"}, "[35]": {"target": "Neu5Ac(a2-3)[Neu5Ac(a2-6)]GalNAc", "outline": "as §1"}, "Neu5Ac(a2-6)Gal": {"target": "Neu5Ac(a2-6)Gal", "outline": "as §1"}}, "note": "Some of the results follow.", "data": [{"binder": "SJCP1531 (Schistosoma japonicum) (protein) MFKVRIINLVNISTVLLLINLLQTKSQVNVEQLVTVLEVNIKAQLKNKTTEVLVEWNPLYQDNSMPEYRKLLDETCKLFLPFVNEKVPPSTYGGECTNANFSEAPQDGSYSRVNAELRLIYKYSDNPQIQTDRLQDDLNDREEFITSESSFVAYNPKFTVKIEKLFIPISESQTTPPPTTAKNDASKKDDDDNGGEDSKAPIDTFAMTASGNKGKKDDDDNGGEDSKAPIDTFAMTASGSKDERSTWTIIGIITLVVLIFVVIGGGITVFVKRC", "values": [{"measurement": "glycan array binding signal (z-score)", "setting": "[1]", "result": 0.502}, {"measurement": "glycan array binding signal (z-score)", "setting": "[2]", "result": 0.584}, {"measurement": "glycan array binding signal (z-score)", "setting": "[3]", "result": -0.403}, {"measurement": "glycan array binding signal (z-score)", "setting": "[4]", "result": -0.242}, {"measurement": "glycan array binding signal (z-score)", "setting": "[5]", "result": 1.34}, {"measurement": "glycan array binding signal (z-score)", "setting": "[6]", "result": 2.53}, {"measurement": "glycan array binding signal (z-score)", "setting": "[7]", "result": -1.45}, {"measurement": "glycan array binding signal (z-score)", "setting": "[8]", "result": 2.12}, {"measurement": "glycan array binding signal (z-score)", "setting": "[9]", "result": 0.712}, {"measurement": "glycan array binding signal (z-score)", "setting": "[10]", "result": -1.21}, {"measurement": "glycan array binding signal (z-score)", "setting": "[11]", "result": -0.569}, {"measurement": "glycan array binding signal (z-score)", "setting": "[12]", "result": -0.981}, {"measurement": "glycan array binding signal (z-score)", "setting": "[13]", "result": -0.676}, {"measurement": "glycan array binding signal (z-score)", "setting": "[14]", "result": 1.18}, {"measurement": "glycan array binding signal (z-score)", "setting": "[15]", "result": -0.986}, {"measurement": "glycan array binding signal (z-score)", "setting": "[16]", "result": -0.685}, {"measurement": "glycan array binding signal (z-score)", "setting": "[17]", "result": 0.638}, {"measurement": "glycan array binding signal (z-score)", "setting": "[18]", "result": -0.574}, {"measurement": "glycan array binding signal (z-score)", "setting": "[19]", "result": 0.004}, {"measurement": "glycan array binding signal (z-score)", "setting": "[20]", "result": -0.336}, {"measurement": "glycan array binding signal (z-score)", "setting": "[21]", "result": -0.84}, {"measurement": "glycan array binding signal (z-score)", "setting": "[22]", "result": -0.914}, {"measurement": "glycan array binding signal (z-score)", "setting": "[23]", "result": -1.08}, {"measurement": "glycan array binding signal (z-score)", "setting": "[24]", "result": 1.85}, {"measurement": "glycan array binding signal (z-score)", "setting": "[25]", "result": 2.04}, {"measurement": "glycan array binding signal (z-score)", "setting": "[26]", "result": 1.01}, {"measurement": "glycan array binding signal (z-score)", "setting": "[27]", "result": -0.034}, {"measurement": "glycan array binding signal (z-score)", "setting": "[28]", "result": -0.06}, {"measurement": "glycan array binding signal (z-score)", "setting": "[29]", "result": 0.498}, {"measurement": "glycan array binding signal (z-score)", "setting": "[30]", "result": -1.33}, {"measurement": "glycan array binding signal (z-score)", "setting": "Neu5Ac(a2-3)GalNAc", "result": 1.74}, {"measurement": "glycan array binding signal (z-score)", "setting": "[31]", "result": 0.66}, {"measurement": "glycan array binding signal (z-score)", "setting": "[32]", "result": 0.462}, {"measurement": "glycan array binding signal (z-score)", "setting": "[33]", "result": -1.06}, {"measurement": "glycan array binding signal (z-score)", "setting": "[34]", "result": 0.971}, {"measurement": "glycan array binding signal (z-score)", "setting": "[35]", "result": 0.103}, {"measurement": "glycan array binding signal (z-score)", "setting": "Neu5Ac(a2-6)Gal", "result": -0.277}]}]}
